Measured values published in US20160367623A1, “AGONISTS OF GUANYLATE CYCLASE USEFUL FOR THE TREATMENT OF GASTROINTESTINAL DISORDERS, INFLAMMATION, CANCER AND OTHER DISORDERS” (priority 2015, published 2016).

Tested on: patients with chronic idiopathic constipation (CIC)
Assay: Second phase 3 CIC trial: patient compliance with study medication
Type: in vivo, human
Details: ITT Population
[1] = Active Combined (N = 892), Missing Returned Tablet Count Imputed as Number of Pills Dispensed
[2] = Active Combined (N = 892), Missing Returned Tablet Count Imputed as Zero
[3] = Plecanatide 3 mg (N = 443), Missing Returned Tablet Count Imputed as Number of Pills Dispensed
[4] = Plecanatide 3 mg (N = 443), Missing Returned Tablet Count Imputed as Zero
[5] = Plecanatide 6 mg (N = 449), Missing Returned Tablet Count Imputed as Number of Pills Dispensed
[6] = Plecanatide 6 mg (N = 449), Missing Returned Tablet Count Imputed as Zero

Substance: Asn^1-Asp^2-Glu^3-Cys^4-Glu^5-Leu^6-Cys^7-Val^8-Asn^9-Val^10-Ala^11-Cys^12-Thr^13-Gly^14-Cys^15-Leu^16 (NDECELCVNVACTGCL; disulfides C4-C12, C7-C15) [Plecanatide, uroguanylin analogue, guanylate cyclase-C agonist; (C4:C12, C7:C15) bicycle peptide]
- % of patients who did not complete study treatment who were compliant with study treatment (Active Combined (N = 392), Missing Returned Tablet Count Imputed as Zero): (87.2) %
- % of patients who completed study treatment who were compliant with study treatment [1]: (95.4) %
- % of patients who did not complete study treatment who were compliant with study treatment [1]: (71.8) %
- % of patients who were compliant with study treatment [1]: (92.3) %
- % of patients who completed study treatment who were compliant with study treatment [2]: (98.6) %
- % of patients who were compliant with study treatment [2]: (97.1) %
- % of patients who completed study treatment who were compliant with study treatment [3]: (94.7) %
- % of patients who did not complete study treatment who were compliant with study treatment [3]: (81.0) %
- % of patients who were compliant with study treatment [3]: (92.8) %
- % of patients who completed study treatment who were compliant with study treatment [4]: (98.7) %
- % of patients who did not complete study treatment who were compliant with study treatment [4]: (90.5) %
- % of patients who were compliant with study treatment [4]: (97.5) %
- % of patients who completed study treatment who were compliant with study treatment [5]: (95.9) %
- % of patients who did not complete study treatment who were compliant with study treatment [5]: (61.1) %
- % of patients who were compliant with study treatment [5]: (91.8) %
- % of patients who completed study treatment who were compliant with study treatment [6]: (98.5) %
- % of patients who did not complete study treatment who were compliant with study treatment [6]: (83.3) %
- % of patients who were compliant with study treatment [6]: (96.7) %
